± gives the uncertainty stated by the source. The uncertainty is large for many entries.
Experiment: self-splicing fitness, log relative to wild type (ln ratio); higher = more splicing; Tetrahymena group I intron in knt gene, E. coli kanamycin selection, DiMSum; sequences stand for … in CUCUCU…GGAGGGAAAAGUUAUCAGGCAUGCACCUGGUAGCUAGUCUUUAAACCAAUAGAUUGCAUCGGUUUAAAAGGCAAGACCGUCAAAUUGCGGGAAAGGGGUCAACAGCCGUUCAGUACCAAGUCUCAGGGGAAACUUUGAGAUGGCCUUGCAAAGGGUAUGGUAAUAAGCUGACGGACAUGGUCCUAACCACGCAGCCAAGUCCUAAGUCAACAGAUCUUCUGUUGAUAUGGAUGCAGUUCACAGACUAAAUGUCGGUCGGGGAAGAUGUAUUCUUCUCAUAAGAUAUAGUCGGACCUCUCCUUAAUGGGAGCUAGCGGAUGAAGUGAUGCAACACUGGAGCCGCUGGGAACUAAUUUGUAUGCGAAAGUAUAUUGAUUAGUUUUGGAGUACUCGUGGUCG
Procedure, shortened: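 Pooled colonies went to amplicon sequencing on an Illumina HiSeq 2500 after six replicate transformations. The plates were LB agar with 100 μg/mL carbenicillin, 50 μM IPTG and 0.2% rhamnose, with or without 25 μg/mL kanamycin, incubated overnight at 37°C or 30°C. The E. coli BL21(DE3) library had all eight P1ex-region intron nucleotides randomised, the intron placed in the knt kanamycin-resistance gene on pET-22b(+). DiMSum fitness is the error-weighted combination of replicate fold changes, kanamycin against none, normalised to wild type.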

| Sequence | self-splicing fitness (ln) (30 °C) | self-splicing fitness (ln) (37 °C) |
| --- | --- | --- |
| UUACAGCAAUAUUACGCCCC | -1.94 ± 0.68 | 1.1 ± 0.63 |
| CCCUAGCAAUAUUACGAAUU | -3.99 ± 0.72 | -2.22 ± 0.6 |
| GUUGAGCAAUAUUACGUCCA | – | -3.14 ± 0.52 |
| AACGAGCAAUAUUACGACAC | -4.43 ± 0.73 | – |
| CCCUAGCAAUAUUACGGGCG | -1.68 ± 0.089 | -0.597 ± 0.1 |
| GUAUAGCAAUAUUACGAAAA | -1.8 ± 0.56 | -1.18 ± 0.22 |
| CGUGAGCAAUAUUACGGCCA | – | -3.26 ± 1 |
| AGGGAGCAAUAUUACGCCGA | – | -2.2 ± 1.1 |
| GUUGAGCAAUAUUACGCAGC | – | -2.64 ± 0.75 |
| UGAGAGCAAUAUUACGCCGA | – | -0.778 ± 1.4 |
| CCGGAGCAAUAUUACGUGAA | -3.66 ± 0.52 | – |
| GGCGAGCAAUAUUACGGCCG | -2.11 ± 0.16 | -0.882 ± 0.2 |
| CAGGAGCAAUAUUACGUUCU | -4.15 ± 0.2 | -2.05 ± 0.14 |
| GUCAAGCAAUAUUACGUCGG | -4.6 ± 0.51 | – |
| CCGUAGCAAUAUUACGGCCA | -3.75 ± 0.74 | – |
| AACGAGCAAUAUUACGAUCA | -2.1 ± 0.21 | -1.41 ± 0.21 |
| UGCAAGCAAUAUUACGAGUA | -0.888 ± 0.083 | 0.181 ± 0.083 |
| CUUUAGCAAUAUUACGGCUA | -3.13 ± 1 | -2.68 ± 0.56 |
| UCUCAGCAAUAUUACGUGGA | -3.7 ± 0.29 | -1.05 ± 0.12 |
| UAAAAGCAAUAUUACGCGAG | -0.897 ± 0.075 | -0.186 ± 0.095 |

Retrieved one by one from above (3):

| Sequence | self-splicing fitness (ln) (30 °C) | self-splicing fitness (ln) (37 °C) |
| --- | --- | --- |
| UGCAAGCAAUAUUACGAGUA | -0.888 ± 0.083 | 0.181 ± 0.083 |
| UCUCAGCAAUAUUACGUGGA | -3.7 ± 0.29 | -1.05 ± 0.12 |
| CGUGAGCAAUAUUACGGCCA | – | -3.26 ± 1 |

Next part.

| Sequence | self-splicing fitness (ln) (30 °C) | self-splicing fitness (ln) (37 °C) |
| --- | --- | --- |
| GCGUAGCAAUAUUACGUAGC | -3.34 ± 1.1 | – |
| UAUGAGCAAUAUUACGUGAC | -3.78 ± 0.73 | – |
| UUAGAGCAAUAUUACGCCAU | – | -1.47 ± 0.59 |
| CCUCAGCAAUAUUACGGAAC | -3.5 ± 0.52 | -1.54 ± 1.2 |
| GUCGAGCAAUAUUACGGCCU | – | -2.23 ± 0.64 |
| GCGUAGCAAUAUUACGCCCC | – | -0.881 ± 0.75 |
| CGCAAGCAAUAUUACGUUUC | -2.92 ± 0.16 | -2.21 ± 0.23 |
| UUUUAGCAAUAUUACGGGGC | -3.2 ± 0.54 | -2.63 ± 1 |
| GGAGAGCAAUAUUACGGUCC | -3.34 ± 0.78 | – |
| UCGGAGCAAUAUUACGCGAA | -4.49 ± 1 | -3.77 ± 0.52 |
| CGGUAGCAAUAUUACGCACA | -0.755 ± 0.26 | -0.0778 ± 0.19 |
| GGGGAGCAAUAUUACGUAUG | -4.77 ± 0.59 | – |
| ACUCAGCAAUAUUACGCACC | -1.19 ± 0.094 | 0.495 ± 0.11 |
| GAGUAGCAAUAUUACGGUCC | – | -1.15 ± 0.87 |
| UGGGAGCAAUAUUACGCGCU | -3.48 ± 1.1 | – |
| UGGGAGCAAUAUUACGCACC | -2.16 ± 0.65 | – |
| UAUGAGCAAUAUUACGCGUA | -1.96 ± 1.2 | -1.12 ± 0.93 |
| UUUCAGCAAUAUUACGCCAC | -4.4 ± 0.74 | -2.41 ± 0.76 |
| CUAUAGCAAUAUUACGCCAA | -3.24 ± 0.56 | – |
| GCGGAGCAAUAUUACGAUCC | -2.57 ± 0.63 | – |

| Sequence | self-splicing fitness (ln) (30 °C) | self-splicing fitness (ln) (37 °C) |
| --- | --- | --- |
| CUGUAGCAAUAUUACGAUUU | -3.44 ± 0.6 | – |
| CAUGAGCAAUAUUACGCUUA | -3.77 ± 0.43 | -2.19 ± 0.25 |
| GAGAAGCAAUAUUACGGGAU | -3.32 ± 0.16 | -2.58 ± 0.2 |
| UCGGAGCAAUAUUACGAAAC | – | -1.86 ± 0.52 |
| GUGCAGCAAUAUUACGGAGA | -4.17 ± 1.1 | – |
| CGUCAGCAAUAUUACGGGAU | -4.7 ± 0.39 | -2.66 ± 0.2 |
| GACGAGCAAUAUUACGACGG | – | -1.93 ± 0.81 |
| CCUUAGCAAUAUUACGUCCA | -4.13 ± 0.59 | – |
| GGCGAGCAAUAUUACGCGUC | -4.33 ± 0.72 | – |
| UACGAGCAAUAUUACGCGUA | -4.38 ± 1 | – |
| CGUGAGCAAUAUUACGAACG | – | -1.45 ± 0.51 |
| CCUUAGCAAUAUUACGGGUU | -3.63 ± 0.53 | – |
| UAGUAGCAAUAUUACGGAAG | -4.64 ± 0.59 | – |
| UGCGAGCAAUAUUACGUGAA | -4.37 ± 0.59 | – |
| UGUGAGCAAUAUUACGAGCC | – | -2.71 ± 0.62 |
| CGAGAGCAAUAUUACGGAAA | – | -3.06 ± 0.52 |
| CAGUAGCAAUAUUACGAUCC | -3.52 ± 0.75 | -2.66 ± 0.53 |
| GGAAAGCAAUAUUACGCCUG | – | -1.27 ± 0.55 |
| GAGAAGCAAUAUUACGCACC | -1.91 ± 0.28 | -1.41 ± 0.42 |
| UGAUAGCAAUAUUACGCGCU | -0.577 ± 0.11 | -0.36 ± 0.14 |

Reference: the supplement of paper PMC7877785
